According to patent US6870029B2, “Method of diagnosing and treating gliomas” (priority 1995, dated 2005):
Where two headings read alike, the source gives them in different places.

Test system: astrocytoma Cl− channel
Test: Anion substitution, tail current reversal potential and current amplitude
Type: cell-based, human
[1] = equimolar (125 mM) replacement of external chloride, mean change from NaCl control
[2] = permeability ratio, Goldman-Hodgkin-Katz equation

| Compound | ΔErev [1] [mV] | Panion/PCl [2] | Panion/PCl | ΔErev [mV] |
| --- | --- | --- | --- | --- |
| N[C@@H](CCC(=O)O)C(=O)O [Glutamate] | 29.8 ± 2.3 | 0.33 ± 0.18 |  |  |
| Br [Bromide] | −15.5 ± 6.3 | 1.95 ± 0.47 |  |  |
| F [Fluoride] | 24.6 ± 3.0 | 0.41 ± 0.05 |  |  |
| O=S(=O)(O)CCO [Isethionate] | 18.5 ± 0.7 | 0.51 ± 0.01 |  |  |
| O=[N+]([O-])O [Nitrate] |  |  | 2.02 ± 0.58 | −15.8 ± 8.8 |
| CC(=O)O [Acetate] | 4.0 ± 0 | 0.90 ± 0.02 |  |  |
| I [Iodide] | −20.8 ± 7.5 | 2.44 ± 0.65 |  |  |
